Earlier results in patent publication US20100255598A1, “Medication Adherence Monitoring System” (priority 2007, published 2010).

Conditions: endogenous metabolism; cited from earlier work

Compound | mean concentrations in human breath
CC=O [acetaldehyde] | 2-5 ppb
CC(C)=O [acetone] | 293-870 ppb
N [ammonia] | 422-2389 ppb
CCO [Ethanol, ethanol] | 27-153 ppb
C=CC(=C)C [isoprene] | 55-121 ppb

Conditions: humans; cited from earlier work

Compound | endogenous blood plasma concentration [µM]
CCO [Ethanol, ethanol] | 4 to 33
CO [Methanol, methanol] | 12.5 to 25
